Assay results from patent publication US8383853B2, “Method for preparing 2,6-diethyl-4-methylphenylacetic acid” (Bayer Cropscience AG, priority 2004, dated 2013).
Some entries share one result that the patent states for a list of compounds.

What was measured:
Type in all cases: in vivo
[1] = test system: greenhouse red spider mite (Tetranychus urticae); assay: Tetranychus test (OP-resistance/spray treatment); conditions: 100 g/ha of a.i., after 5 d
[2] = test system: green peach aphid (Myzus persicae); assay: Myzus test (spray treatment); conditions: 500 g/ha of a.i., after 5 d
[3] = test system: larvae of the mustard beetle (Phaedon cochleariae); assay: Phaedon test (PHAECO spray treatment); conditions: 500 g/ha of a.i., after 7 d
Lolium multiflorum [4] = assay: Herbicidal pre-emergence action; conditions: application rate 320 g/ha, 3 weeks
Excerpt: (§1) Seeds of monocotyledonous and dicotyledonous weed and crop plants are placed in sandy loam in wood fiber pots and covered with soil. The test compounds, formulated in the form of wettable powders (WP), are then, as an aqueous suspension with a water application rate of 600 l/ha (converted), with 0.2% of wetting agent added, applied to the surface of the covering soil in various dosages.
(§2) After the treatment, the pots are placed in a greenhouse and kept under good growth conditions for the test plants. The visual assessment of the emergence damage on the test plants is carried out after a trial period of 3 weeks by comparison with untreated controls (herbicidal effect in percent (%): 100% effect=the plants have died, 0% effect=like control plants).

Setaria viridis [5] = assay: Herbicidal pre-emergence action; conditions: application rate 320 g/ha, 3 weeks
Excerpt: as §1, §2

Avena sativa [6] = assay: Herbicidal pre-emergence action; conditions: application rate 320 g/ha, 3 weeks
Lolium multiflorum [7] = assay: Herbicidal post-emergence action; conditions: application rate 320 g/ha, about 3 weeks
Description: (§3) Seeds of monocotyledonous and dicotyledonous weed and crop plants are placed into sandy loam in wood fiber pots, covered with soil and cultivated in a greenhouse under good growth conditions. Two-three weeks after sowing, the test plants are treated at the one-leaf stage. The test compounds, formulated as wettable powders (WP), are then, in various dosages with a water application rate of 600 l/ha (converted), with 0.2% of wetting agent added, sprayed onto the green parts of the plants. After the test plants have been kept in the greenhouse under optimum growth conditions for about 3 weeks, the effect of the preparations is rated visually in comparison to untreated controls (herbicidal effect in percent (%): 100% effect=the plants have died, 0% effect=like control plants).

Setaria viridis [8] = assay: Herbicidal post-emergence action; conditions: application rate 320 g/ha, about 3 weeks
Description: as §3

Echinochloa crus-galli = assay: Herbicidal post-emergence action; conditions: application rate 320 g/ha, about 3 weeks
Description: as §3

Avena sativa [9] = assay: Herbicidal post-emergence action; conditions: application rate 320 g/ha, about 3 weeks

SMILES | activity in % (spider mites killed) [1] [%] | activity in % (aphids killed) [2] [%] | activity in % (beetle larvae killed) [3] [%] | activity (herbicidal effect in percent) (Lolium multiflorum [4]) [%] | activity (herbicidal effect in percent) (Setaria viridis [5]) [%] | activity (herbicidal effect in percent) (Avena sativa [6]) [%] | activity (herbicidal effect in percent) (Lolium multiflorum [7]) [%] | activity (herbicidal effect in percent) (Setaria viridis [8]) [%] | activity (herbicidal effect in percent) (Echinochloa crus-galli) [%] | activity (herbicidal effect in percent) (Avena sativa [9]) [%]
CCOC(=O)OC1=C(c2c(CC)cc(C)cc2CC)C(=O)N2CC(OC)CC12 (centres unmarked) [I-c-7] | ≥ 70 |  |  |  |  |  |  |  |  | 
CCOCC(=O)OC1=C(c2c(CC)cc(C)cc2CC)C(=O)NC12CCC(OC)CC2 (single isomer, unassigned) [I-b-2] | ≥ 70 | ≥ 90 | ≥ 80 |  |  |  |  |  |  | 
CCOC(=O)OC1=C(c2c(CC)cc(C)cc2CC)C(=O)NC1(C)C [I-c-3] | ≥ 70 |  |  | ≥ 80 | ≥ 80 | ≥ 80 | ≥ 80 | ≥ 80 | ≥ 80 | ≥ 80
CCOC(=O)OC1=C(c2c(CC)cc(C)cc2CC)C(=O)N(C)C1CC (centres unmarked) [I-c-4] | ≥ 70 |  |  |  |  |  | ≥ 80 | ≥ 80 | ≥ 80 | ≥ 80
